# Inconclusive means that the source gave no clear call. Potencies beside an inconclusive call are fits to weak or partial responses and may not hold up.
# System: rainbow trout Peroxisome Proliferator-activated Receptor alpha (PPARa), gene 110490141
# Experiment: ATG_rtPPARa_EcoTox2: Attagene TRANS-FACTORIAL EcoTox-2 HepG2 Assay for rainbow trout Peroxisome Proliferator-activated Receptor alpha (PPARa); active = hit-call score of the fitted dose curve at least 0.9, where 1 is the maximum; inconclusive = response in the unintended direction; inactive = score below 0.9
# Experimental: ATG_EcoTox2 is a cell-based, multiplexed assay created by modifying the existing Attagene TRANS-FACTORIAL system to include a panel of nuclear receptors from some or all the following species: human (Homo sapiens), african clawed frog (Xenopus laevis), rainbow trout (Oncorhynchus mykiss), japanese medaka (Oryzias latipes), and zebrafish (Danio rerio). The ECOTOX2-FACTORIAL format uses HepG2, a human liver cell line, with measurements taken at 24 hours after chemical dosing in a 24-well plate. ATG_rtPPARa_EcoTox2 is one of 29 assay components calculated in the ATG_EcoTox2 assay. It is designed to make measurements of mRNA induction, a form of inducible reporter, as detected with fluorescence intensity signals by Reverse transcription polymerase chain reaction (RT-PCR) and Capillary electrophoresis technology.The assay endpoint ATG_frPPARa_EcoTox2 was analyzed in the positive analysis fitting direction relative to DMSO as the negative control and baseline of activity. Using a type of inducible reporter, measures of mRNA for gain-of-signal activity can be used to understand the reporter gene at the transcription factor-level as they relate to the gene PPARa. Furthermore, this assay endpoint can be referred to as a primary readout, because this assay has produced multiple assay endpoints where this one serves a reporter gene function. […]
# Human liver HepG2 cells are transiently transfected with multiple reporter transcription units (MRTUs) in 6-well plates using FuGene 6 reagent (Roche; 3 ml FuGene/1 mg DNA). […] A major difference between the CIS and TRANS system is that in CIS activities of endogenous TFs are measured, whereas the TRANS assay evaluates changes in activities of exogenous, chimeric NR-Gal4 proteins. […] The fragments were purified using Qiaquick PCR columns (Qiagen), analyzed on an ABI 3130xL genetic analyzer (Applied Biosystems) with peak positions identified by using a set of X-rhodamine (ROX)-labeled MapMarker1000 molecular weight standards (BioVentures). […]
row,Compound,AC50
1,O=P(Oc1ccccc1)(Oc1ccccc1)Oc1ccccc1,inconclusive: 0.616 µM
2,CCCCOCN(C(=O)CCl)c1c(CC)cccc1CC,inconclusive: 2.1 µM
3,[Cl][Sn]([c]1ccccc1)([c]1ccccc1)[c]1ccccc1,inconclusive: 0.362 µM

# From PubChem BioAssay AID2284347 (EPA ToxCast)
